Measured values from PubChem BioAssay AID2551 (National Center for Advancing Translational Sciences (NCATS), 2010).
Among all 310,000 compounds or so, about 17,000 (5.5%) were called active. This list was built around the results that the source calls inconclusive (neither active nor inactive); the mix of calls is not that of the screen. Calls follow the shape of the dose curve; as a rule, active = well fitted inhibition curve with a large enough effect; inconclusive = small, poorly fitted or top-dose-only effect, or effect the other way; inactive = no such curve, though single readings can be large or run the other way. Where the call is inconclusive, the potency comes from a doubtful curve fit.

Sequences of proteins named here, by UniProt entry; tags and fusion partners are left off. A change or cut given only in a name is not applied to a line headed by its entry.
UniProt P51450: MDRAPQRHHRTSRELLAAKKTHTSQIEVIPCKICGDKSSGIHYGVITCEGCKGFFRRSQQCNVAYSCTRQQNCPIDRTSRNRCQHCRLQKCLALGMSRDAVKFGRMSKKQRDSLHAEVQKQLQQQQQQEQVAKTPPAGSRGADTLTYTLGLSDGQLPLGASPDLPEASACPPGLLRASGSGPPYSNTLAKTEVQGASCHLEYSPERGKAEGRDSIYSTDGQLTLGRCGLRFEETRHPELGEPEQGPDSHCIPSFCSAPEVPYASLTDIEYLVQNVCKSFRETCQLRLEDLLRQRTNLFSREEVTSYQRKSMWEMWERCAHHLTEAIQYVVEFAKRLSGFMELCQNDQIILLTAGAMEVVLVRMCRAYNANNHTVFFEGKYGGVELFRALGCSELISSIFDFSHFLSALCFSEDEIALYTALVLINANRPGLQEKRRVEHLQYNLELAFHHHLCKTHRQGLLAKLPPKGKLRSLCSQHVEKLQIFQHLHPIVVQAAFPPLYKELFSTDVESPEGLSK

biological target: Nuclear receptor ROR-gamma (Mus musculus) (UniProt P51450); test: qHTS for inhibitors of ROR gamma transcriptional activity; settings: Drosophila S2 Gal4-RORgamma UAS-luciferase reporter, 20 h; activity change, negative = inhibition: at 53.6 µM (top of the series); also: nearly all actives have a fitted effect of over 60% in size
Method in brief: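 Luminescence from a UAS-regulated Photinus luciferase reporter in stably transfected Drosophila Schneider cells is measured; decreased signal marks ROR gamma inhibition. Fusion expression is induced by 700 uM copper sulfate for 20 hr.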
% is scaled to controls: 0 for no effect and ±100 for the full control effect; potency is read from the fitted curve at half-maximal effect.

Potency, active:
CCn1c(-c2nn(C)cc2Cl)n[nH]c1=S 11.2 µM
Cc1cccc(NC2=NC(=S)N(CC#N)C23CCCCC3)c1 11.2 µM
CCC(NC(=S)NCc1ccc(F)cc1)c1ccccc1 (stereo not given) 3.55 µM
COC(=O)C(O)C1C(C)(C)C(OC(C)=O)C2CC3=C4CC(=O)OC(c5ccoc5)[C@]4(C)CCC3[C@@]1(C)C2=O (stereo not given in full) 12.6 µM
CCOC(=O)C(C(=O)Nc1nc2ccccc2s1)C1CCCCC1 (stereo not given) 5.01 µM
CC1CCc2c(sc3nc(C(C)(C)C)nc(N4CCN(C(=O)CCl)CC4)c23)C1 (stereo not given) 12.6 µM
COC(=O)C1=C(C)N(c2ccccc2)C(=S)NC1c1ccccc1C(F)(F)F (stereo not given) 3.16 µM
Cc1cc(C)c2sc(NNC(=O)c3ccc(S(=O)(=O)N4CCc5ccccc5C4)cc3)nc2c1 4.47 µM
O=C(NNC1OC(CO)C(O)C(O)C1O)c1cccc(Br)c1 (stereo not given) 11.2 µM
O=C(Oc1c(CN2CCOCC2)cc(Cl)c2cccnc12)c1ccccc1F 1.12 µM
CC(C)(C)c1ccc(/C=N/N2C(=O)CSC2=S)cc1 10 µM
Cc1ccc(NC(=S)N2CCN(c3ncccn3)CC2)c(C)c1 35.5 µM
CC(c1ccc(Cl)cc1)n1c(-c2ccc3ccccc3n2)n[nH]c1=S (stereo not given) 1.78 µM
CNC(=S)N/N=C/c1ccc(OCC(=O)Nc2c(C)cc(C)cc2C)c(OC)c1 14.1 µM
CC(C)CC(=O)NC(=S)Nc1ccccc1C(F)(F)F 5.62 µM
O=C(NC(=S)NCCO)c1sc2ccccc2c1Cl 11.2 µM

Potency, inconclusive:
CC(=O)N1CCc2cc(S(=O)(=O)Nc3ccc(C)cc3)ccc21 20 µM [activator, single point]
CCN1C(=O)[C@H]2[C@@H](c3ccc(C)cc3)N3C(=O)N(c4ccc(OC)cc4)C(=O)[C@@]3(Cc3ccc(Cl)cc3)[C@H]2C1=O 22.4 µM [activator, single point]
O=c1cnc(-c2ccc(Cl)cc2)cn1O 15.8 µM [inhibitor, single point]
COC(=O)c1c(NS(=O)(=O)c2ccc(C)cc2)sc2c1CCC(C)C2 (stereo not given) 35.5 µM [inhibitor, single point]
Nc1c(C(=O)NCc2ccc3c(c2)OCO3)nnn1-c1ccc(OC(F)(F)F)cc1 3.55 µM [inhibitor, single point]
Cc1ccc(-c2nc3ccccc3o2)cc1NC(=S)NC(=O)c1cc2ccccc2o1 0.562 µM [inhibitor, full curve, poor fit]
COc1cc(C2c3cc4c(cc3C(OC3OC5COC(c6cccs6)OC5C(O)C3O)C3COC(=O)C23)OCO4)cc(OC)c1O (stereo not given) 0.251 µM [inhibitor, full curve, poor fit]
COc1ccc(S(N)(=O)=O)cc1C(=O)OCCCOC(=O)c1cc(S(N)(=O)=O)ccc1OC 4.47 µM [inhibitor, partial curve]
O=C1Nc2ccc3sc4ccccc4c3c2C1=O 7.08 µM [inhibitor, partial curve]
NS(=O)(=O)c1ccc(NC(=O)c2ccc3c(c2)CCN3S(=O)(=O)c2ccccc2)cc1 11.2 µM [activator, partial curve, poor fit]
CC(C)C(=O)N1CCN(S(=O)(=O)c2ccc3ccccc3c2)CC1 35.5 µM [activator, single point]
Cc1ccc(S(=O)(=O)Nc2ccc(-c3nnc(SCc4ccccc4Cl)o3)cc2)cc1 12.6 µM [activator, partial curve]
O=C(c1cc2ccccc2o1)N1CCN(Cc2ccc3c(c2)OCO3)CC1 35.5 µM [activator, single point]
O=C(NCc1cccnc1)c1ccc(-c2cc(Cl)ccc2Cl)o1 15.8 µM [activator, single point]
COc1ccc(/C=C2/SC(=S)N(c3ccc(S(=O)(=O)Nc4nccs4)cc3)C2=O)cc1 11.2 µM [inhibitor, single point]
COc1ccc(/C=C2\CCCC3C2=NN(C(=O)c2ccco2)C3c2ccc(OC)c(OC)c2)cc1OC (stereo not given) 31.6 µM [activator, single point]
O=c1[nH][nH]cc1C=Nc1ccccc1O 28.2 µM [inhibitor, single point]
O=C(c1ccc(-n2c(SCc3cccc(F)c3)nc3ccccc3c2=O)cc1)N1CCOCC1 0.1 µM [activator, full curve, poor fit]
C=CCN(C(=O)Cn1ncc2c1-c1cc(C)ccc1OC2)c1ccccc1 17.8 µM [inhibitor, single point]
Cc1ccc(CN2CCN(/N=C/c3cc(Br)ccc3O)CC2)cc1 22.4 µM [activator, partial curve, poor fit]
COC(=O)c1ccccc1S(=O)(=O)N(CCCO)Cc1cc2c(C)ccc(C)c2[nH]c1=O 0.005 µM [inhibitor, full curve, poor fit]
CC(C)(C)OC(=O)C1=NOC2(C=CC(=O)C=C2)C1 35.5 µM [inhibitor, single point]
Cc1noc(C)c1-c1ccc2ncnc(NCc3ccc(C(F)(F)F)o3)c2c1 1.12 µM [inhibitor, partial curve, poor fit]
CC(C)N1CCc2c(sc(NC(=O)c3cc(-c4cccs4)nc4ccccc34)c2C(N)=O)C1 35.5 µM [inhibitor, single point]
CNC(=O)NC(=O)C(OC(=O)Cc1cccc(C(F)(F)F)c1)c1ccccc1 (stereo not given) 22.4 µM [activator, single point]
O=C(O)CCc1ccc(-c2ccc(F)cc2)n1CCC(=O)O 2.51 µM [inhibitor, full curve, poor fit]
C(=C\c1nc(N2CCCCCC2)c2ccccc2n1)/c1ccccc1 3.16 µM [inhibitor, single point]
CC(C)c1ccc(OCC(O)CNC(C)c2ccccc2)cc1 (stereo not given) 20 µM [inhibitor, single point]
COc1ccc(C(=O)NC(=S)Nc2cccc3nc(C)ccc23)cc1OC 25.1 µM [inhibitor, partial curve, poor fit]
CC(=O)c1ccccc1NC(=O)COC(=O)/C(=C/c1ccccc1)n1nnnc1C 7.08 µM [inhibitor, partial curve]
COCCn1c(=O)[nH]c2cc(C(=O)NCCCN3CCN(c4ccc(F)cc4)CC3)ccc2c1=O 20 µM [activator, partial curve, poor fit]
COc1ccc(S(=O)(=O)N2CCOC2CNC(=O)C(=O)NCc2cccnc2)cc1OC (stereo not given) 1.12 µM [activator, partial curve]
O=S(=O)(c1ccc(-c2cn3ccccc3n2)cc1)N1CCOCC1 12.6 µM [activator, single point]
Nc1cc(=O)[nH]c(SCCSc2ccccc2)n1 35.5 µM [activator, single point]
COc1cc2[nH]c(=S)n(CCN3CCCCC3C)c(=O)c2cc1OC (stereo not given) 35.5 µM [inhibitor, single point]
Cc1ccccc1Cn1cnc2ccccc21 35.5 µM [inhibitor, single point]
COc1ccccc1NC(=O)N1CCc2[nH]c3ccc(Cl)cc3c2C1 35.5 µM [activator, single point]

At a glance, 4 of the compounds above.
Potency, inconclusive:
O=C(c1cc2ccccc2o1)N1CCN(Cc2ccc3c(c2)OCO3)CC1 35.5 µM [activator, single point]
O=C(NCc1cccnc1)c1ccc(-c2cc(Cl)ccc2Cl)o1 15.8 µM [activator, single point]
COc1ccc(/C=C2/SC(=S)N(c3ccc(S(=O)(=O)Nc4nccs4)cc3)C2=O)cc1 11.2 µM [inhibitor, single point]
COc1ccc(/C=C2\CCCC3C2=NN(C(=O)c2ccco2)C3c2ccc(OC)c(OC)c2)cc1OC (stereo not given) 31.6 µM [activator, single point]

Next part.

Activity change, negative = inhibition, inactive:
COc1cccc(CNC(=O)c2c(C)nn(-c3ccccc3)c2C)c1 31.4%
C1CCN2C[C@@H]3C[C@@H](CN4CCCC[C@H]34)[C@H]2C1 -0.357% [at 2.98 µM]
Nc1nc(SCC(=O)Nc2ccc(C(F)(F)F)cc2)[nH]c(=O)c1NC(=O)c1ccc(F)c(F)c1 -31.2%
Cn1c(=O)n(C/C=C/c2ccccc2)c(=O)c2c1nc1n2CCCN1c1ccc(F)cc1 0.267%
Cc1ccnc(NC(=O)c2cccc(NC(=O)Cc3ccccc3)c2)c1 24.6%
CN1CCC(N(C)S(=O)(=O)c2ccc(C(C)(C)C)cc2)CC1 7.11%
O=C(Nc1cc(Cl)ccc1O)C1CC(c2ccccc2Cl)=NO1 (stereo not given) 16.1%
O=C(COC(=O)Cn1cnc2ccccc21)Nc1ccc2c(c1)C(=O)c1ccccc1C2=O -0.177% [at 10 µM]
COc1ccccc1-c1cncnc1Nc1ccccc1 -22.4%
CCCn1c(=O)c2sccc2n2c(CCCC(=O)NCc3ccco3)nnc12 -11.7%
Cc1noc(/C=C/N(C)C)c1S(=O)(=O)N1CCCC(C(=O)Nc2ccc3c(c2)OCO3)C1 (stereo not given) -2.74%
COc1ccc(NC(=O)N2CCC(c3nc(-c4cccs4)no3)CC2)cc1 24.6%
COc1ccc(C(=O)NNC(=O)Cc2ccc(Cl)cc2)cc1 17.2%
CC(=O)Nc1ccc(-c2csc(NC(=O)C3CC(=O)N(c4ccc5c(c4)OCCO5)C3)n2)cc1 (stereo not given) 27.2%
CCOc1ccccc1C(=O)N(C)CC(=O)Nc1ccc(OC)cc1 -2.28%
CC(C)OCCCNC(=O)CN1C(=O)/C(=C/c2ccccc2F)Oc2ccccc21 -0.186%
CCOC(=O)c1ccc(NC(=O)N2CCN(C3CCCCC3)CC2)cc1 -25.5%
